In US20250129012A1, “ANTI-INFLAMMATORY AND ANALGESIC COMPOUNDS AND USE THEREOF” (JIANGSU ATOM BIOSCIENCE AND PHARMACEUTICAL CO., LTD., priority 2021, published 2025):
At least one compound was matched to its structure with a doubt left.

Tested on: gouty arthritis rats (sodium urate, right ankle and knee joint cavities)
Assay: Pharmacodynamics experiment B on gouty arthritis rats: gait score
Assay type: in vivo, SD rats
Settings: compounds 0.6 mg/kg; colchicine 0.6 and 1.2 mg/kg
Protocol: Compounds 12, 16, 19, 30, 34, 36, 38, 40, 44, 48, 49, 52, 58, 69, 83, 98, 102, 119, 121, and 122 were prepared by grinding with 0.5% CMC-Na prior to administration and formulated into suspensions of appropriate concentration (0.12 mg/mL) for gavage, with an administered dose of 0.5 mL/100 g.
240 SD rats, males, were acclimatized for one week and weighed 180-220 g. […] The dose of each compound group was 0.6 mg/kg. The compounds in each group were prepared into the corresponding concentration suspension, and the volume of administration was 10 mL/kg.
250 mg of sodium urate were added to 9 mL of saline, and 1 mL of Tween-80 solution was added, the resulting mixture was heated and stirred to formulate 10 mL of sodium urate solution. […]
Gait was scored according to the modified gait grading criteria introduced by Coderre et al. The gait of each rat was observed before and 2 h, 4 h, 8 h, 10 h, 24 h and 48 h after modeling and graded scoring was performed. […] The mean score of each group was calculated and compared with that of the model group.
Each experimental data was expressed as the mean, and intergroup comparisons were examined for significance using the ANOVA-Dunnett T-test, with P<0.05 as the significance indicator.

CNC(=O)N[C@H]1CCc2cc(OC)c(OC)c(OC)c2-c2cc(C)c(OC)c(=O)cc21 [Compound 44, (S)-1-methyl-(1,2,3,10-tetramethoxy-11-methyl-9-oxo-5,6,7,9-tetrahydrobenzo[a]heptalen-7-yl)urea] was tested, and the “Gait versus model group, in words” value was “significant improvement in gait occurred at different time points”.
